# According to PubChem BioAssay (NCATS):
# This list was built around the results that the source calls inconclusive (neither active nor inactive); the mix of calls is not that of the screen. Where the call is inconclusive, the potency comes from a doubtful curve fit. Activity calls are given as the source filed them. Calls follow the shape of the dose curve; as a rule, active = well fitted cell-killing curve with a large enough effect; inconclusive = small, poorly fitted or top-dose-only effect, or effect the other way; inactive = no such curve, though single readings can be large or run the other way.
# Assay: Quantitative High-Throughput drug screen in 47 multiple myeloma cell lines against the NCATS MIPE library collection: UTMC2_PLB cell viability assay (AID 1919868); also: nearly all actives have a fitted effect of over 55% in size
# Details: CellTiter-Glo ATP luminescence, 48 h; series mostly up to 45.8 µM
# From the text: PI: Beverly A. Mock Ph.D.
# Laboratory of Cancer Biology and Genetics,
# Center for Cancer Research, National Cancer Institute,
# National Institute of Health, Bethesda, Maryland
# Drug resistance and disease progression are common in multiple myeloma (MM) patients, underscoring the need for new therapeutic combinations. […] We hypothesized that effective combinations would reduce MYC expression and enhance p16 activity. […] These preclinical data identify potentially useful drug combinations for evaluation in drug-resistant MM and reveal potential mechanisms of combined drug sensitivity.
# Described herein is the primary MIPE qHTS used to cherrypick compounds. Validated compounds were then further tested for potential synergistic activiy.
# [1] Peat TJ, Gaikwad SM, Dubois W, Gyabaah-Kessie N, Zhang S, Gorjifard S, Phyo Z, Andres M, Hughitt VK, Simpson RM, Miller MA, Girvin AT, Taylor A, Williams D, D'Antonio N, Zhang Y, Rajagopalan A, Flietner E, Wilson K, Zhang X, Shinn P, Klumpp-Thomas C, McKnight C, Itkin Z, Chen L, Kazandijian D, Zhang J, Michalowski AM, Simmons JK, Keats J, Thomas CJ, Mock BA. Drug combinations identified by high-throughput screening promote cell cycle transition and upregulate Smad pathways in myeloma. Cancer Lett. 2023 Aug 1;568:216284. doi: 10.1016/j.canlet.2023.216284. Epub 2023 Jun 24. PMID: 37356470; PMCID: PMC10408729.
# SEQUENCE No. (e.g., 1, 2, 3, etc.); […] (e.g., Cells, Incubation, Reagent, etc.); VALUE and DESCRIPTION.
# 1; Cells; 5 uL; white, solid bottom 1536-well Greiner assay plate.
# 2; Compounds; 23 nL; Kalypsis pin tool (Wako USA) equipped with a 1536-well pin head to transfer to the assay plates.
# 3; Incubation; 48 hours; 37C incubation.
# 4; Reagent;5uL; CellTiter Glo (Promega).
# 5; Detector; 425V; Luminescence; Viewlux PerkinElmer.
# NOTES (numbers refer to Sequence numbers above)
# 1. The cell-based screening methods employed in this study were like those previously published. Briefly, the corresponding myeloma cell lines were screened in 1,536-well plates with 500 cells, 5-uL per well for inhibition of cell viability (assessed by measuring ATP levels with CellTiterGlo).
# 2. NCATS MIPE 4.0 library of approved and investigational drugs were added using the Kalypsis pin tool. Wells treated with DMSO only for 100% viability and media only for 0% viability were used as controls.
# 3. The assay plates were covered and incubated for 48 hours in a 37C, 5% CO2 incubator with controlled humidity.
# 4. After 48 hours, CellTilter-GloTM luminescent substrate mix (Promega) reagent was added to the assay plate and plates we incubated for 5 min at room temperature.
# 5. Signal was measured as median relative luminescence units on a ViewLux (PerkinElmer) multiplate reader.
# [1] Heske CM, Davis MI, Baumgart JT, Wilson K, Gormally MV, Chen L, Zhang X, Ceribelli M, Duveau DY, Guha R, Ferrer M, Arnaldez FI, Ji J, Tran HL, Zhang Y, Mendoza A, Helman LJ, Thomas CJ. Matrix Screen Identifies Synergistic Combination of PARP Inhibitors and Nicotinamide Phosphoribosyltransferase (NAMPT) Inhibitors in Ewing Sarcoma. Clin Cancer Res. 2017 Dec 1;23(23):7301-7311. doi: 10.1158/1078-0432.CCR-17-1121. Epub 2017 Sep 12. PMID: 28899971; PMCID: PMC6636827.
# Potency is read from the fitted curve at half-maximal effect.
row,Structure (SMILES),Potency
1,O=C1CCC(N2C(=O)c3ccccc3C2=O)C(=O)N1 (stereo not given),"inconclusive: 33200 nM [rising, single point]"
2,C=CC(=O)Nc1cccc(Oc2nc(Nc3ccc(N4CCN(C)CC4)cc3OC)ncc2Cl)c1,"inconclusive: 46.9 nM [cytotoxic, full curve, poor fit]"
3,NCC(=O)Nc1ccc(-n2nc(C(F)(F)F)cc2-c2ccc3c(ccc4ccccc43)c2)cc1,"inconclusive: 20900 nM [cytotoxic, partial curve, poor fit]"
4,Nc1cccc(S(=O)(=O)N2CCCN(S(=O)(=O)c3ccc4c(c3)OCCO4)CC2)c1,"inconclusive: 16.6 nM [cytotoxic, full curve, poor fit]"
5,Fc1ccc(CNc2ncnc3ccc(F)cc23)cc1,"inconclusive: 8330 nM [rising, single point]"
6,CC(C)(C)OC(=O)Nc1ccc(-c2cc(C(=O)NCCCCCCC(=O)NO)no2)cc1,active: 590 nM
7,Cc1cc2nc3c(=O)[nH]c(=O)nc-3n(CC(O)C(O)C(O)CO)c2cc1C (stereo not given),inactive
8,COC(=O)[C@H](CCCN=C(N)N)NS(=O)(=O)c1ccc(C)cc1,"inconclusive: 2640 nM [cytotoxic, full curve, poor fit]"
9,Cc1cn(-c2cc(NC(=O)c3ccc(C)c(Nc4nccc(-c5cccnc5)n4)c3)cc(C(F)(F)F)c2)cn1,"inconclusive: 37200 nM [cytotoxic, single point]"
10,Fc1ccc([C@@H]2CCNC[C@H]2COc2ccc3c(c2)OCO3)cc1,"inconclusive: 20.9 nM [cytotoxic, full curve, poor fit]"
11,CC(=O)NC[C@H]1CN(c2ccc(N3CCOCC3)c(F)c2)C(=O)O1,inactive
12,NC(=NCCCCCCN=C(N)N=C(N)Nc1ccc(Cl)cc1)N=C(N)Nc1ccc(Cl)cc1,active: 5260 nM
13,C=CCn1c(=O)c2cnc(Nc3ccc(N4CCN(C)CC4)cc3)nc2n1-c1cccc(C(C)(C)O)n1,active: 148 nM
14,C[C@H]1COc2c(N3CCN(C)CC3)c(F)cc3c(=O)c(C(=O)O)cn1c23,inactive
15,COc1cc(Nc2c(C#N)cnc3cc(OCCCN4CCN(C)CC4)c(OC)cc23)c(Cl)cc1Cl,active: 526 nM
16,COc1cc2nc(N3CCN(C(=O)C4COc5ccccc5O4)CC3)nc(N)c2cc1OC (stereo not given),"inconclusive: 6620 nM [cytotoxic, partial curve, poor fit]"
17,Cc1ccc(NC(=O)c2ccc(CN3CCN(C)CC3)cc2)cc1Nc1nc(-c2cccnc2)cs1,"inconclusive: 20900 nM [cytotoxic, partial curve, poor fit]"
18,COc1c(Cl)cc2c([nH]c3cnccc32)c1NC(=O)c1cccnc1C,"inconclusive: 3320 nM [cytotoxic, partial curve, poor fit]"
19,COc1cc2c(Nc3ccc(NC(=O)c4ccccc4)cc3)ncnc2cc1OCCCN1CCOCC1,"inconclusive: 26400 nM [cytotoxic, partial curve, poor fit]"
20,CCc1cncnc1N1CCN(Cc2nc3ccc(C(F)(F)F)cc3[nH]2)CC1,active: 18700 nM

# Individual results from the results shown.
# Potency with Cc1ccc(NC(=O)c2ccc(CN3CCN(C)CC3)cc2)cc1Nc1nc(-c2cccnc2)cs1 is entered as inconclusive: 20900 nM [cytotoxic, partial curve, poor fit]
# Potency with COc1cc2nc(N3CCN(C(=O)C4COc5ccccc5O4)CC3)nc(N)c2cc1OC (stereo not given) is entered as inconclusive: 6620 nM [cytotoxic, partial curve, poor fit]

# Remaining list, next part

row,Structure (SMILES),Potency
1,COc1cc2ncn(-c3cc(OCc4ccccc4S(C)(=O)=O)c(C#N)s3)c2cc1OC,"inconclusive: 2960 nM [cytotoxic, full curve, poor fit]"
2,CC=C1C2C=C(C)CC1(N)c1ccc(=O)[nH]c1C2 (stereo not given),"inconclusive: 332 nM [cytotoxic, full curve, poor fit]"
3,COCCCOc1ccnc(CS(=O)c2nc3ccccc3[nH]2)c1C (stereo not given),"inconclusive: 2.1 nM [cytotoxic, full curve, poor fit]"
4,CC(=O)O[C@H]1C(=O)[C@@]2(C)C([C@H](OC(=O)c3ccccc3)[C@]3(O)C[C@H](OC(=O)[C@H](O)[C@@H](NC(=O)c4ccccc4)c4ccccc4)C(C)=C1C3(C)C)[C@]1(OC(C)=O)CO[C@@H]1C[C@@H]2O (stereo not given in full),"inconclusive: 1.3 nM [rising, full curve, poor fit]"
5,NCCCC(N)(C(=O)O)C(F)F (stereo not given),"inconclusive: 662 nM [cytotoxic, partial curve, poor fit]"
6,NCc1c[nH]c(=S)n1[C@H]1CCc2c(F)cc(F)cc2C1,"inconclusive: 16600 nM [cytotoxic, partial curve, poor fit]"
7,Fc1ccc(C(c2ccc(F)cc2)N2CCN(CC=Cc3ccccc3)CC2)cc1,inactive
8,CC(C)c1ccccc1Cc1cc(C(=O)Nc2ccc(S(=O)(=O)c3ccccc3C(C)(C)C)cc2)c(O)c(O)c1O,active: 4690 nM
9,CCc1c2c(nc3ccc(OC(=O)N4CCC(N5CCCCC5)CC4)cc13)-c1cc3c(c(=O)n1C2)COC(=O)[C@]3(O)CC,active: 418 nM
10,COC(=O)C1=C(C)NC(C)=C(C(=O)OC(C)C)C1c1cccc2nonc12 (stereo not given),"inconclusive: 8330 nM [cytotoxic, partial curve, poor fit]"
11,O=S(=O)(O)CCS,inactive
12,O=C(C=Cc1c(C(=O)O)[nH]c2cc(Cl)cc(Cl)c12)Nc1ccccc1,"inconclusive: 1660 nM [rising, full curve, poor fit]"
13,CCOCC(O)COc1ccc(NC(=O)CC[S+](C)C)cc1 (stereo not given),inactive
14,CC[C@]1(O)C[C@H]2CN(CCC3=c4ccccc4=N[C]3[C@@](C(=O)OC)(c3cc4c(cc3OC)N(C)[C@H]3[C@@](O)(C(N)=O)[C@H](O)[C@]5(CC)C=CCN6CC[C@]43[C@@H]65)C2)C1,active: 5.3 nM
15,COc1ccc2c(c1)c(CC(=O)OCC(=O)O)c(C)n2C(=O)c1ccc(Cl)cc1,"inconclusive: 20900 nM [rising, partial curve, poor fit]"
16,CN(C)c1nc(Cc2ccc(NC(=O)c3ccc(C(F)(F)F)cc3)cc2)nc(N(C)C)c1CC(=O)O,"inconclusive: 20900 nM [cytotoxic, partial curve, poor fit]"
17,Cn1cc(-c2ccc3nnc(Sc4ccc5ncccc5c4)n3n2)cn1,"inconclusive: 33.2 nM [rising, full curve, poor fit]"
18,CNC(=O)c1ccc2c(C(=Nc3cccc(CN(C)C)c3)c3ccccc3)c(O)[nH]c2c1,active: 16600 nM
19,CCCCC(=O)O[C@]1(C(=O)CO)[C@@H](C)C[C@H]2[C@@H]3CCC4=CC(=O)C=C[C@]4(C)[C@@]3(F)[C@@H](O)C[C@@]21C,"inconclusive: 3 nM [cytotoxic, full curve, poor fit]"
20,CCN(CCO)CCCOc1ccc2c(Nc3cc(CC(=O)Nc4cccc(F)c4)[nH]n3)ncnc2c1,active: 74.3 nM
